Numbering of substitutions follows the chain as printed. Where two headings read alike, the source gives them in different places. No constants are given. Whether binding was seen depends on the method and setting. In cells and extracts the contact can be indirect. Here binding means that the protein was enriched with, or labelled near, the bait; the list need not be complete. For some assays here: A no says only that the protein was not detected with the bait. Tags and fused reporters may be left off the sequences shown.
T1: L16P PMP22 (Charcot-Marie-Tooth disease variant), myc-tagged (human) (UniProt Q01453)
T1 sequence (chain, N-linked glycan at N41 (80 ± 2% of L16P PMP22 was glycosylated in HEK293 cells)): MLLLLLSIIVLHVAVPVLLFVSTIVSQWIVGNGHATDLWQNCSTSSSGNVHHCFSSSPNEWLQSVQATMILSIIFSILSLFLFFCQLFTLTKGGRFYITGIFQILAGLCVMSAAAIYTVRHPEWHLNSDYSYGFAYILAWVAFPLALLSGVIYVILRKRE

Chains of the proteins cited; added tags and fusions are not shown. Residues count along the entry.
UniProt P61619: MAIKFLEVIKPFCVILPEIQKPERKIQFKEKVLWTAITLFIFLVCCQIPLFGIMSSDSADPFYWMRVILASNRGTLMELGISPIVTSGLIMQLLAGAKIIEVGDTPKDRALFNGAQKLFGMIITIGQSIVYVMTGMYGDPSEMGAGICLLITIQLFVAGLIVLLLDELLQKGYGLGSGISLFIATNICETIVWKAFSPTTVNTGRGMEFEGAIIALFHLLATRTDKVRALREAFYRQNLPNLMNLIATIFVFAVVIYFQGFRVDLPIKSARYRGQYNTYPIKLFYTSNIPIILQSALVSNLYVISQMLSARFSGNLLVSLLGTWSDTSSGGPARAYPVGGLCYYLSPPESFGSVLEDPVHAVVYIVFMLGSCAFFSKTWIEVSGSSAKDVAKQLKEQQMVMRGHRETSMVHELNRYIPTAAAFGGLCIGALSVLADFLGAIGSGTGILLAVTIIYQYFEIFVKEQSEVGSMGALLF
UniProt Q9NYU2, residues 43-1555: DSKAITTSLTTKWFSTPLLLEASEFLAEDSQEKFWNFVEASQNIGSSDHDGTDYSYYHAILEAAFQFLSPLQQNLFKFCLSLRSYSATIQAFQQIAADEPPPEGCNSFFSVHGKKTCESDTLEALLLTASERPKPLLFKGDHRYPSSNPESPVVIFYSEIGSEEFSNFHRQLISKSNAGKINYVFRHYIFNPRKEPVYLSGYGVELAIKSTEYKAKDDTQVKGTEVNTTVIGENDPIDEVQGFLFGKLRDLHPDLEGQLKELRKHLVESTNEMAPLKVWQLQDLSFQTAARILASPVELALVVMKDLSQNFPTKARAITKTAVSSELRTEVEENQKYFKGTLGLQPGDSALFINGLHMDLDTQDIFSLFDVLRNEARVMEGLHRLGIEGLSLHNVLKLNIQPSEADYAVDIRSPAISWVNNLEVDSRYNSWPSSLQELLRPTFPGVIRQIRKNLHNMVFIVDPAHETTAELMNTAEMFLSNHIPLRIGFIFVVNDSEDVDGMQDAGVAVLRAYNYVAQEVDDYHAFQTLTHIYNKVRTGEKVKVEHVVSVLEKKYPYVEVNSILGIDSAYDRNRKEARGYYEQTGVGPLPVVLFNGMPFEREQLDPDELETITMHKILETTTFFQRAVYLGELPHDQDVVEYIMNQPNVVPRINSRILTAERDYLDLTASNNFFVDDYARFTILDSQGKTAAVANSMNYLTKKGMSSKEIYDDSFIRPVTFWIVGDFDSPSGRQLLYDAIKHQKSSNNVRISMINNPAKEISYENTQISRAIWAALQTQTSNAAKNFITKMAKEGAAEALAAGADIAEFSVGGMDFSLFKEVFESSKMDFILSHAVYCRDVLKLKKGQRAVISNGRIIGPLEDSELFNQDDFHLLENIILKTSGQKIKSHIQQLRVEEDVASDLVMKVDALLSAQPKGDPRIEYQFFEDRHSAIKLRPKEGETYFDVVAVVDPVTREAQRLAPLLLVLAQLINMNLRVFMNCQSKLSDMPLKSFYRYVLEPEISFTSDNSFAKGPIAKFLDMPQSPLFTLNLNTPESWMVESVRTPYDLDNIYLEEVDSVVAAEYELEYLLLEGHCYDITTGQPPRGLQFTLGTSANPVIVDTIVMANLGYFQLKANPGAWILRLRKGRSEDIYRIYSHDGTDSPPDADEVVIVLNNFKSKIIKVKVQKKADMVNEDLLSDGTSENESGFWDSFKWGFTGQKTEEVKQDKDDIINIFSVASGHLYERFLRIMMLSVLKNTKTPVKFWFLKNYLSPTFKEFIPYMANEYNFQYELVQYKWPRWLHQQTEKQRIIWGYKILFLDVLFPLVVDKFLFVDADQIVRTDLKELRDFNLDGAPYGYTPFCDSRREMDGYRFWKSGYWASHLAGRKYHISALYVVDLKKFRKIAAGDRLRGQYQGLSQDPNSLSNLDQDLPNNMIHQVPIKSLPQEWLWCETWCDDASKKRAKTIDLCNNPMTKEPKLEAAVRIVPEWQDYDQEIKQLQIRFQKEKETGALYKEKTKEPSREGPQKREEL
UniProt P27824, residues 21-592: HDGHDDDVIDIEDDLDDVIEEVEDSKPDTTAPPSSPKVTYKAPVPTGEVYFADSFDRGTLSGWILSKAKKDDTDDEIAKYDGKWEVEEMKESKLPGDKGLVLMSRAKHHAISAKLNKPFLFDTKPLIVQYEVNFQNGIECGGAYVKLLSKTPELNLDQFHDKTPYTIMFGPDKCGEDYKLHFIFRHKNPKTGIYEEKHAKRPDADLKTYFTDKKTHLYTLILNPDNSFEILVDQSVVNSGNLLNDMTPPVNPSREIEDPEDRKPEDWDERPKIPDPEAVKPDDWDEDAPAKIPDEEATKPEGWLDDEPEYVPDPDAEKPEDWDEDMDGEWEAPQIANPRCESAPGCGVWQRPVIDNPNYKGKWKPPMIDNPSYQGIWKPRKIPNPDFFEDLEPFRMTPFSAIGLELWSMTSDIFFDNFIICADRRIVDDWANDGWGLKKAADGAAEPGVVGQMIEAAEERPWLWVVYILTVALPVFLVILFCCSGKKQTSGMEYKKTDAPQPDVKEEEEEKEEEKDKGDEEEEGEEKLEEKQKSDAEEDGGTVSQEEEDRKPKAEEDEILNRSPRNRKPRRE

T2: N41Q PMP22 (glycosylation-deficient), myc-tagged (human) (UniProt Q01453)
T2 sequence: T1 sequence (chain, N-linked glycan at N41 (80 ± 2% of L16P PMP22 was glycosylated in HEK293 cells)) with P16L, N41Q

B1: ZMPSTE24 (enzyme, UniProt O75844 1-475)
chain: MGMWASLDALWEMPAEKRIFGAVLLFSWTVYLWETFLAQRQRRIYKTTTHVPPELGQIMDSETFEKSRLYQLDKSTFSFWSGLYSETEGTLILLFGGIPYLWRLSGRFCGYAGFGPEYEITQSLVFLLLATLFSALTGLPWSLYNTFVIEEKHGFNQQTLGFFMKDAIKKFVVTQCILLPVSSLLLYIIKIGGDYFFIYAWLFTLVVSLVLVTIYADYIAPLFDKFTPLPEGKLKEEIEVMAKSIDFPLTKVYVVEGSKRSSHSNAYFYGFFKNKRIVLFDTLLEEYSVLNKDIQEDSGMEPRNEEEGNSEEIKAKVKNKKQGCKNEEVLAVLGHELGHWKLGHTVKNIIISQMNSFLCFFLFAVLIGRKELFAAFGFYDSQPTLIGLLIIFQFIFSPYNEVLSFCLTVLSRRFEFQADAFAKKLGKAKDLYSALIKLNKDNLGFPVSDWLFSMWHYSHPPLLERLQALKTMKQH
B2: HM13 (enzyme, UniProt Q8TCT9 1-377)
chain: MDSALSDPHNGSAEAGGPTNSTTRPPSTPEGIALAYGSLLLMALLPIFFGALRSVRCARGKNASDMPETITSRDAARFPIIASCTLLGLYLFFKIFSQEYINLLLSMYFFVLGILALSHTISPFMNKFFPASFPNRQYQLLFTQGSGENKEEIINYEFDTKDLVCLGLSSIVGVWYLLRKHWIANNLFGLAFSLNGVELLHLNNVSTGCILLGGLFIYDVFWVFGTNVMVTVAKSFEAPIKLVFPQDLLEKGLEANNFAMLGLGDVVIPGIFIALLLRFDISLKKNTHTYFYTSFAAYIFGLGLTIFIMHIFKHAQPALLYLVPACIGFPVLVALAKGEVTEMFSYEESNPKDPAAVTESKEGTEASASKGLEKKEK
B3: STT3A, catalytic subunit of oligosaccharyltransferase OST-A (enzyme, UniProt P46977 1-705)
chain: MTKFGFLRLSYEKQDTLLKLLILSMAAVLSFSTRLFAVLRFESVIHEFDPYFNYRTTRFLAEEGFYKFHNWFDDRAWYPLGRIIGGTIYPGLMITSAAIYHVLHFFHITIDIRNVCVFLAPLFSSFTTIVTYHLTKELKDAGAGLLAAAMIAVVPGYISRSVAGSYDNEGIAIFCMLLTYYMWIKAVKTGSICWAAKCALAYFYMVSSWGGYVFLINLIPLHVLVLMLTGRFSHRIYVAYCTVYCLGTILSMQISFVGFQPVLSSEHMAAFGVFGLCQIHAFVDYLRSKLNPQQFEVLFRSVISLVGFVLLTVGALLMLTGKISPWTGRFYSLLDPSYAKNNIPIIASVSEHQPTTWSSYYFDLQLLVFMFPVGLYYCFSNLSDARIFIIMYGVTSMYFSAVMVRLMLVLAPVMCILSGIGVSQVLSTYMKNLDISRPDKKSKKQQDSTYPIKNEVASGMILVMAFFLITYTFHSTWVTSEAYSSPSIVLSARGGDGSRIIFDDFREAYYWLRHNTPEDAKVMSWWDYGYQITAMANRTILVDNNTWNNTHISRVGQAMASTEEKAYEIMRELDVSYVLVIFGGLTGYSSDDINKFLWMVRIGGSTDTGKHIKENDYYTPTGEFRVDREGSPVLLNCLMYKMCYYRFGQVYTEAKRPPGFDRVRNAEIGNKDFELDVLEEAYTTEHWLVRIYKVKDLDNRGLSRT

Tests used:
Test in all cases: affinity purification with mass spectrometry; myc-tagged PMP22 (WT, N41Q or L16P) immunopurified from HEK293 lysate (0.3% CHAPS lysis buffer, pH 7.8) on anti-myc magnetic beads, 90 min at 4 °C; TMT-labelled LC-MS/MS; mock: cells expressing untagged PMP22; six biological replicates
[1] = target: T1, L16P PMP22 (Charcot-Marie-Tooth disease variant), myc-tagged (human)
[2] = target: T2, N41Q PMP22 (glycosylation-deficient), myc-tagged (human)
[3] = target: T1, L16P PMP22 (Charcot-Marie-Tooth disease variant), myc-tagged (human); remark: listed apart in the source

| Molecule | binding [1] | binding [2] | binding [3] |
| --- | --- | --- | --- |
| Sec61α subunit of the translocon (from UniProt P61619 1-476) | binds |  |  |
| UDP-glucose:glycoprotein glucosyltransferase 1 (from UniProt Q9NYU2 43-1555) (enzyme) | no binding | no binding |  |
| calnexin (from UniProt P27824 21-592) | binds | binds weakly |  |
| B1 |  |  | binds |
| B2 |  |  | binds |
| B3 |  |  | binds |

— PMC8191293
